Results taken from the supplement of paper PMC10849652.
The other results are listed elsewhere or left out.

By UniProt entry, the sequences of proteins in these tests, tags left out. Where a name states a change or a piece, a line headed by the entry shows the natural chain unless it says otherwise.
UniProt O75351, whole entry, looked up: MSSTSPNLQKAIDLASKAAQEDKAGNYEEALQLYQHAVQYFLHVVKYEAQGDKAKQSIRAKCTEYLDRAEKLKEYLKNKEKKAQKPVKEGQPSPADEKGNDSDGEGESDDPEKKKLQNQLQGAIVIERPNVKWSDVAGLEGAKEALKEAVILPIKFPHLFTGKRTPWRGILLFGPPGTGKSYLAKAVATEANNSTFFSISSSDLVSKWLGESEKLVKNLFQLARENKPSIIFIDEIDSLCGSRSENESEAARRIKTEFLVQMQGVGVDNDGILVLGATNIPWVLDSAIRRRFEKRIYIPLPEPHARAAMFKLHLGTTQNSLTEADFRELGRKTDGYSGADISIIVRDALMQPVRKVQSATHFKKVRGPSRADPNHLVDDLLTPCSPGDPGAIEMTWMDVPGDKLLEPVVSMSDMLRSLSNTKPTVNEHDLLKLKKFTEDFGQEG
UniProt Q9NNW5: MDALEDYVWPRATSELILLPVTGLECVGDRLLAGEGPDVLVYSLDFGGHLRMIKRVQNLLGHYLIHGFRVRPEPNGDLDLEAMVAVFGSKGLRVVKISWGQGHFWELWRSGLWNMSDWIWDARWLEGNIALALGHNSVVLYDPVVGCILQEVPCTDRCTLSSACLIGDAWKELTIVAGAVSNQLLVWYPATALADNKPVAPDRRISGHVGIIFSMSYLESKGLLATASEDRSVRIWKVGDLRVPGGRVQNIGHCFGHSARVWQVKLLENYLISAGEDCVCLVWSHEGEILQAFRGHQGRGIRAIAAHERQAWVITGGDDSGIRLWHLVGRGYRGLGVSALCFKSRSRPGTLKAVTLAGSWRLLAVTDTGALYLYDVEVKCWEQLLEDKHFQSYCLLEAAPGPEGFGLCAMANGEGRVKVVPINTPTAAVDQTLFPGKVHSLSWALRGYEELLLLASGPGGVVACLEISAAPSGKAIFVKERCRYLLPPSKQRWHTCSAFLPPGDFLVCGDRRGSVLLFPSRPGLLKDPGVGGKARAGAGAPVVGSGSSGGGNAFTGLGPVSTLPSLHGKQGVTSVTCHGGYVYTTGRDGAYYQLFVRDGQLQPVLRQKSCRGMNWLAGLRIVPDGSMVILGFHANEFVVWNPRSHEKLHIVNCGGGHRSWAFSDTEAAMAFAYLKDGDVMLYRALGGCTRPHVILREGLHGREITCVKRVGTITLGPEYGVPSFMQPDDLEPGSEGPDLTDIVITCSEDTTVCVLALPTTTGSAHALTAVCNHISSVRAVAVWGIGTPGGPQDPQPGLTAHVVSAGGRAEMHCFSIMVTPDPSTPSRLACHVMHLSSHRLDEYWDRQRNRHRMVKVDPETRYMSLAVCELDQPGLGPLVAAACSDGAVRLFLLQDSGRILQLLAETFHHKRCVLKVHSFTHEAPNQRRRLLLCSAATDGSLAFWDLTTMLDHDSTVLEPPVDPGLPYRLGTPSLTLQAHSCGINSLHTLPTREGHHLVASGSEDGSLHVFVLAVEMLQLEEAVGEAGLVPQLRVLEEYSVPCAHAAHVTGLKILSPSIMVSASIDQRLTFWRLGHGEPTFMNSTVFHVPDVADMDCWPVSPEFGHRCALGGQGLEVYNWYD
UniProt Q6RFH5: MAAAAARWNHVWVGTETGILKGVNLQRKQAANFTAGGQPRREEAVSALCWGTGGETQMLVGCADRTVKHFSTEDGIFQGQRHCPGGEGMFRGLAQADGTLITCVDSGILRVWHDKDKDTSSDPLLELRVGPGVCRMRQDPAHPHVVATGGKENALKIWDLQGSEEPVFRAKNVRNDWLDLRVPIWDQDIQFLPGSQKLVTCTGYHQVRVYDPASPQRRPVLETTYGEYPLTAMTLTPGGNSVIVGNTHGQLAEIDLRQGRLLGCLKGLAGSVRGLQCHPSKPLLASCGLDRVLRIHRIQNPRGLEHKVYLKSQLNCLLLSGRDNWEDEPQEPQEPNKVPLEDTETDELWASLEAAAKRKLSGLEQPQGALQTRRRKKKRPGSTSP
UniProt Q9Y277: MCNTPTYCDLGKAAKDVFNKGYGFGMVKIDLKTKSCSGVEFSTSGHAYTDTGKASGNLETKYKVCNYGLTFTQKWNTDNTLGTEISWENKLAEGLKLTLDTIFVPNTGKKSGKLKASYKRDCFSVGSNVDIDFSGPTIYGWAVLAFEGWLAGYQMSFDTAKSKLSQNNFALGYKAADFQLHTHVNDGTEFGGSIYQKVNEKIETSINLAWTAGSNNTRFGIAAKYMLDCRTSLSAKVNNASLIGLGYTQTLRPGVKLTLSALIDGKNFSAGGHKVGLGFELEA
UniProt Q6PJI9: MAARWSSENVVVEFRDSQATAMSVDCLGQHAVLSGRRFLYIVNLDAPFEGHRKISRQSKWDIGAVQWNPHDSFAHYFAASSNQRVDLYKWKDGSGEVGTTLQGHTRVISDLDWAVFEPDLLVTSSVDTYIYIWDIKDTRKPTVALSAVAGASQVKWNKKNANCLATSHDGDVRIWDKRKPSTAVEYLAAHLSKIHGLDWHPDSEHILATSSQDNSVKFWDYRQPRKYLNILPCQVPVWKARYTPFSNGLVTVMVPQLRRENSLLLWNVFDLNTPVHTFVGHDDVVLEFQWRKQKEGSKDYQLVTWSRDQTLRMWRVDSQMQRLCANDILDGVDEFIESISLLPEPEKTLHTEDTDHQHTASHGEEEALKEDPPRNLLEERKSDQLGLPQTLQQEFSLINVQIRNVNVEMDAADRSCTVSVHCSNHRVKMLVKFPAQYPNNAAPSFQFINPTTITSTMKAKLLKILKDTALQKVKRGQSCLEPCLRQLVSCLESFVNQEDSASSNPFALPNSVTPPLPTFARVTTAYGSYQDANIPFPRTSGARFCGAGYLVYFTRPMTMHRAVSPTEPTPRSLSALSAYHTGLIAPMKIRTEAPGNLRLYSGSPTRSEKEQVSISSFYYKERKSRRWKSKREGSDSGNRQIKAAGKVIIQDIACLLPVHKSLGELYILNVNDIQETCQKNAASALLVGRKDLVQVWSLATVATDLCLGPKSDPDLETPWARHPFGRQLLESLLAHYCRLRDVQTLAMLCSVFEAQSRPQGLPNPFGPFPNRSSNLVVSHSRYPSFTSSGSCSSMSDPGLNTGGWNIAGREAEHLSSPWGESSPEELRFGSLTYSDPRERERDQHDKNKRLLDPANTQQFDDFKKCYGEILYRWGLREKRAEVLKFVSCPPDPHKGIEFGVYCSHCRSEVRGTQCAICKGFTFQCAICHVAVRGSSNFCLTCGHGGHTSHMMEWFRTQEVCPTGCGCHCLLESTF
UniProt Q9BUR4: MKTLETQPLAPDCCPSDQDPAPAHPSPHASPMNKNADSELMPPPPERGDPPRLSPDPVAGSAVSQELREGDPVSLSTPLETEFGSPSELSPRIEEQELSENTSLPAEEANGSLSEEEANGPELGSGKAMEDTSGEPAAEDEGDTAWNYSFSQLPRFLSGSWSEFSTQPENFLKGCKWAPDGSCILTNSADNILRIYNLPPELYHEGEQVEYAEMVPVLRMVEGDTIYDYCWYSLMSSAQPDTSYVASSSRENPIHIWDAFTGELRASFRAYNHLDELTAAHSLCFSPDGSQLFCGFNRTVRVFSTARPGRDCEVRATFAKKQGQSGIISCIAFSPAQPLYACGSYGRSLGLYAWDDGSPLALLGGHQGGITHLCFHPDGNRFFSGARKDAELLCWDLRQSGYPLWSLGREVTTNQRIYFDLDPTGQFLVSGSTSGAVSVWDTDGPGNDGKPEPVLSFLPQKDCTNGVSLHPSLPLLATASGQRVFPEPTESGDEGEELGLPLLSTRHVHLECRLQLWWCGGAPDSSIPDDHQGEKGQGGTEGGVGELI
UniProt P04004: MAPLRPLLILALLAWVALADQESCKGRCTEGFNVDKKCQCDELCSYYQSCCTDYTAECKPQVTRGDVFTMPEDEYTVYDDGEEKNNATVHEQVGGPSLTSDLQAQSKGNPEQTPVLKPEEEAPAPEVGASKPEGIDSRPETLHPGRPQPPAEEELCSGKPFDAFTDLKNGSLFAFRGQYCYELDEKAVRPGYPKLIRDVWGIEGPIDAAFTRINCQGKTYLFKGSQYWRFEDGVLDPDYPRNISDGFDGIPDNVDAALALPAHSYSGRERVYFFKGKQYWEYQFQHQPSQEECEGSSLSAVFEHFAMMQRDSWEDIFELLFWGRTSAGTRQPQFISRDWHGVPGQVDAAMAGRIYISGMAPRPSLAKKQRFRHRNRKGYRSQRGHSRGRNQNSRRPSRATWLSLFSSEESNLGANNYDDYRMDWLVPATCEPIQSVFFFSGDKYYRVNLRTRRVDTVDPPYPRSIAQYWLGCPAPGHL
UniProt O00401, whole entry, looked up: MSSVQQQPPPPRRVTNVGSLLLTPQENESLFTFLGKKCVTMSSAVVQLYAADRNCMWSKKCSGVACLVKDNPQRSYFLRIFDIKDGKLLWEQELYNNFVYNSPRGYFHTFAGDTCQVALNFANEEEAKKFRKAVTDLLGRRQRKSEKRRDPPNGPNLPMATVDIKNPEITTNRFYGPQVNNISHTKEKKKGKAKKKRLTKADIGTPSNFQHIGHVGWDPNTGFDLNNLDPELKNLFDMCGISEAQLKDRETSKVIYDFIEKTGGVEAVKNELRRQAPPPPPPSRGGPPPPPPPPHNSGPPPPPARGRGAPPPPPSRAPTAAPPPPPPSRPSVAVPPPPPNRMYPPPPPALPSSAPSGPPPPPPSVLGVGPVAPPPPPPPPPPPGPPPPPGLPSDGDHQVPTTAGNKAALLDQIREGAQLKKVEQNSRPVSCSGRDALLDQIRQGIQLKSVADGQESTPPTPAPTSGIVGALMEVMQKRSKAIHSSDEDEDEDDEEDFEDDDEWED
UniProt Q96S55: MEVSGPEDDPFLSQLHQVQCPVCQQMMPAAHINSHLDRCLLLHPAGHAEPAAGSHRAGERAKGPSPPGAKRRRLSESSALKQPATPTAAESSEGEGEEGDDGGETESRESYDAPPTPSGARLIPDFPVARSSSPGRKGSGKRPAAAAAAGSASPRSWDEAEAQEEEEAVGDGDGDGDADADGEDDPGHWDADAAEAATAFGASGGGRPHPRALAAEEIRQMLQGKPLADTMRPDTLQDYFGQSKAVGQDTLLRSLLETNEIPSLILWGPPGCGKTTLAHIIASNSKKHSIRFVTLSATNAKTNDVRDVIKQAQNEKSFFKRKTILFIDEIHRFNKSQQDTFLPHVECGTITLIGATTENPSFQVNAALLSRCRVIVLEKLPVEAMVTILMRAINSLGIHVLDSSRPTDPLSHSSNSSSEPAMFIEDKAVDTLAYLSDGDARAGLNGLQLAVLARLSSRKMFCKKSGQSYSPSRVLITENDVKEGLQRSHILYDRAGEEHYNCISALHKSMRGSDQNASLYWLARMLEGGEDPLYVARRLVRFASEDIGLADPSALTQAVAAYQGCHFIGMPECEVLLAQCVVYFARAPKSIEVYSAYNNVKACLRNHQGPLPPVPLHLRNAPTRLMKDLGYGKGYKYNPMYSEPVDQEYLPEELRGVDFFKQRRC
UniProt Q7Z5U6: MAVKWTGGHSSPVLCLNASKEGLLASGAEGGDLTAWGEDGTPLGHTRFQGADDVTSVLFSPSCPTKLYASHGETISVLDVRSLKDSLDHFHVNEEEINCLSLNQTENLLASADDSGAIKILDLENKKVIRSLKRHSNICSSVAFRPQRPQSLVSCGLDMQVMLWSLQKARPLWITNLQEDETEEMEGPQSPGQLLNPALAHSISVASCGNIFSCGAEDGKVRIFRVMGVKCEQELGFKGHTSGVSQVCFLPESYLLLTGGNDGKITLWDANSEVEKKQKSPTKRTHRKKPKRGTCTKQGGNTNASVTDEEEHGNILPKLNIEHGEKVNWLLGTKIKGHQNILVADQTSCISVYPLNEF
UniProt Q9BRG1: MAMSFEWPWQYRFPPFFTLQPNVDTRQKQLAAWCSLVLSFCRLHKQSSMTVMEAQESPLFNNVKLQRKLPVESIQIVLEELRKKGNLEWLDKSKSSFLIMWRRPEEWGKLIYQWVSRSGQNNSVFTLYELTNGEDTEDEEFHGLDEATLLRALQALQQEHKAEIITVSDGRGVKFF
UniProt Q9Y484: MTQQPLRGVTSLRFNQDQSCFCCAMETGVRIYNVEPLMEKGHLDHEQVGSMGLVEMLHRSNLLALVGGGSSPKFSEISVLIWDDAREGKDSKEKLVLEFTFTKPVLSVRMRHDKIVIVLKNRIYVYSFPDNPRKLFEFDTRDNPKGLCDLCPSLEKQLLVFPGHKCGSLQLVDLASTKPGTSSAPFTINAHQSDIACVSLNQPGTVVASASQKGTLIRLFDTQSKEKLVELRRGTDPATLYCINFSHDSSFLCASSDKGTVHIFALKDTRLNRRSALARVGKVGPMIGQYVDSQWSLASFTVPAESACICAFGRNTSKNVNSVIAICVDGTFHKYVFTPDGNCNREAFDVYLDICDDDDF

What was measured:
Test in all cases: log2 fold change, soluble protein after heating vs DMSO (PISA); higher = thermal stabilisation; K562 cells, 10 uM, 30 min; active = over 0.2 and 3.5 SD of the protein, either way, in both replicates (recomputed)
saracatinib = compound: CN1CCN(CCOc2cc(OC3CCOCC3)c3c(Nc4c(Cl)ccc5c4OCO5)ncnc3c2)CC1 [saracatinib]
How it was run: (§1)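 K562 cells at 2×10^6 cells/mL were exposed to 10 μM compound for 30 min, then aliquots were heated for 3 min across 48°C-58°C, pooled, and extracted in PBS containing 0.5% NP-40 at 4°C. The supernatant after 21,000xg for 90 min was taken as soluble protein and measured by TMTpro 16plex LC-MS/MS with channel sums equalised. Thermal stability is reported relative to control samples, with values from duplicates. Fold changes are given on a log2 scale.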

sotrastaurin = compound: CN1CCN(c2nc(C3=C(c4c[nH]c5ccccc45)C(=O)NC3=O)c3ccccc3n2)CC1 [sotrastaurin]
How it was run: as §1

alvocidib = compound: CN1CC[C@H](c2c(O)cc(O)c3c(=O)cc(-c4ccccc4Cl)oc23)[C@H](O)C1 [alvocidib]
How it was run: as §1

Tubastatin A = compound: CN1CCc2c(c3ccccc3n2Cc2ccc(C(=O)NO)cc2)C1 [Tubastatin A]
How it was run: as §1

[1] = compound: CNC(=O)C1=CC=CC=C1NC2=NC(=NC=C2Cl)NC3=C(C=C(C=C3)N4CCOCC4)OC
How it was run: as §1

defactinib = compound: CNC(=O)c1ccc(Nc2ncc(C(F)(F)F)c(NCc3nccnc3N(C)S(C)(=O)=O)n2)cc1 [defactinib]
How it was run: as §1

rucaparib = compound: CNCc1ccc(-c2[nH]c3cc(F)cc4c3c2CCNC4=O)cc1 [rucaparib]
How it was run: as §1

[2] = compound: CNc1nc(-c2ccc3c(N)n[nH]c3c2)cc(N2C[C@@H](C(=O)NC3CCCCC3)CC[C@H]2C)n1
How it was run: as §1

encorafenib = compound: COC(=O)N[C@@H](C)CNc1nccc(-c2cn(C(C)C)nc2-c2cc(Cl)cc(NS(C)(=O)=O)c2F)n1 [encorafenib]
How it was run: as §1

[3] = compound: COC(=O)[C@H](CCSC)NC(=O)C1=C(C=C(C=C1)NC[C@H](CS)N)C2=CC=CC=C2
How it was run: as §1

Measured: log2 fold change

WDR36 (UniProt Q8NI36)
inactive: saracatinib -0.056 | sotrastaurin 0.026 | alvocidib 0.15 | Tubastatin A 0 | [1] -0.016 | defactinib 0.249 | rucaparib 0.201 | [2] 0.081 | encorafenib 0.123 | [3] -0.019

VPS4B (UniProt O75351)
inactive: saracatinib -0.013 | sotrastaurin 0.024 | alvocidib -0.051 | Tubastatin A -0.008 | [1] 0.001 | defactinib -0.042 | rucaparib 0.003 | [2] -0.014 | encorafenib -0.02 | [3] -0.038

WDR73 (UniProt Q6P4I2)
inactive: saracatinib 0.01 | sotrastaurin 0.029 | alvocidib -0.021 | Tubastatin A -0.02 | [1] -0.023 | defactinib -0.042 | rucaparib -0.037 | [2] -0.019 | encorafenib -0.063 | [3] 0.006

WDR20 isoform 7 (UniProt Q8TBZ3)
inactive: saracatinib -0.011 | sotrastaurin -0.071 | alvocidib 0 | Tubastatin A -0.004 | [1] 0.028 | defactinib 0.041 | rucaparib 0.096 | [2] -0.023 | encorafenib 0.022 | [3] 0.027

WDR44 (UniProt Q5JSH3)
inactive: saracatinib 0.045 | sotrastaurin 0.014 | alvocidib -0.024 | Tubastatin A -0.012 | [1] -0.027 | defactinib -0.014 | rucaparib -0.005 | [2] -0.004 | encorafenib -0.008 | [3] 0

WDR6 (UniProt Q9NNW5)
inactive: saracatinib -0.004 | sotrastaurin 0.174 | alvocidib 0.028 | Tubastatin A 0.023 | [1] -0.019 | defactinib -0.006 | rucaparib -0.046 | [2] 0.01 | encorafenib -0.03 | [3] -0.013

WDR74 (UniProt Q6RFH5)
inactive: saracatinib -0.078 | sotrastaurin 0.001 | alvocidib 0.203 | Tubastatin A 0.016 | [1] 0.148 | defactinib 0.304 | rucaparib 0.223 | [2] -0.014 | encorafenib 0.037 | [3] 0.016

VDAC3 (UniProt Q9Y277)
inactive: saracatinib 0.03 | sotrastaurin 0.069 | alvocidib 0 | Tubastatin A -0.028 | [1] 0.001 | defactinib -0.007 | rucaparib -0.002 | [2] -0.037 | encorafenib -0.025 | [3] -0.037

VPS26C (UniProt O14972)
inactive: saracatinib 0.076 | sotrastaurin -0.128 | alvocidib -0.08 | Tubastatin A 0.016 | [1] 0.024 | defactinib -0.108 | rucaparib 0.007 | [2] 0.015 | encorafenib 0.041 | [3] 0.116

WDR59 (UniProt Q6PJI9)
inactive: saracatinib 0.084 | sotrastaurin -0.127 | alvocidib 0.019 | Tubastatin A 0.043 | [1] -0.011 | defactinib 0.13 | rucaparib 0.1 | [2] 0.008 | encorafenib 0.085 | [3] -0.091

WARS (UniProt P23381)
inactive: saracatinib 0.042 | sotrastaurin 0.038 | alvocidib -0.051 | Tubastatin A -0.001 | [1] -0.01 | defactinib 0 | rucaparib 0.002 | [2] 0.008 | encorafenib -0.017 | [3] 0.018

VPS26B (UniProt Q4G0F5)
inactive: saracatinib 0.032 | sotrastaurin 0.014 | alvocidib -0.041 | Tubastatin A -0.008 | [1] -0.021 | defactinib 0 | rucaparib -0.004 | [2] 0.004 | encorafenib 0.026 | [3] 0.029

WASF2 (UniProt Q9Y6W5)
inactive: saracatinib 0.055 | sotrastaurin -0.033 | alvocidib -0.024 | Tubastatin A 0.024 | [1] -0.017 | defactinib 0 | rucaparib -0.095 | [2] -0.06 | encorafenib 0.001 | [3] 0.034

WRAP53 (UniProt Q9BUR4)
inactive: saracatinib 0.011 | sotrastaurin 0.019 | alvocidib 0.05 | Tubastatin A -0.002 | [1] -0.019 | defactinib 0.154 | rucaparib 0.08 | [2] 0.035 | encorafenib 0.034 | [3] -0.01

WDR92 (UniProt Q96MX6)
inactive: saracatinib 0.01 | sotrastaurin -0.017 | alvocidib -0.024 | Tubastatin A 0.027 | [1] 0.113 | defactinib 0.019 | rucaparib 0.063 | [2] 0.14 | encorafenib -0.037 | [3] -0.039

VTN (UniProt P04004)
inactive: saracatinib -0.109 | sotrastaurin 0.166 | alvocidib -0.147 | Tubastatin A -0.031 | [1] 0.079 | defactinib 0.041 | rucaparib -0.04 | [2] 0.027 | encorafenib 0.099 | [3] 0.136

5 neighbouring records from above, quoted:
VPS26C (UniProt O14972)
inactive: saracatinib 0.076 | sotrastaurin -0.128 | alvocidib -0.08 | Tubastatin A 0.016 | [1] 0.024 | defactinib -0.108 | rucaparib 0.007 | [2] 0.015 | encorafenib 0.041 | [3] 0.116

WDR59 (UniProt Q6PJI9)
inactive: saracatinib 0.084 | sotrastaurin -0.127 | alvocidib 0.019 | Tubastatin A 0.043 | [1] -0.011 | defactinib 0.13 | rucaparib 0.1 | [2] 0.008 | encorafenib 0.085 | [3] -0.091

WARS (UniProt P23381)
inactive: saracatinib 0.042 | sotrastaurin 0.038 | alvocidib -0.051 | Tubastatin A -0.001 | [1] -0.01 | defactinib 0 | rucaparib 0.002 | [2] 0.008 | encorafenib -0.017 | [3] 0.018

VPS26B (UniProt Q4G0F5)
inactive: saracatinib 0.032 | sotrastaurin 0.014 | alvocidib -0.041 | Tubastatin A -0.008 | [1] -0.021 | defactinib 0 | rucaparib -0.004 | [2] 0.004 | encorafenib 0.026 | [3] 0.029

WASF2 (UniProt Q9Y6W5)
inactive: saracatinib 0.055 | sotrastaurin -0.033 | alvocidib -0.024 | Tubastatin A 0.024 | [1] -0.017 | defactinib 0 | rucaparib -0.095 | [2] -0.06 | encorafenib 0.001 | [3] 0.034

(next part)

WASL (UniProt O00401)
inactive: saracatinib 0.063 | sotrastaurin 0.007 | alvocidib -0.066 | Tubastatin A 0.003 | [1] -0.001 | defactinib -0.01 | rucaparib -0.02 | [2] 0.029 | encorafenib -0.023 | [3] -0.024

VPS36 (UniProt Q86VN1)
inactive: saracatinib 0.032 | sotrastaurin -0.001 | alvocidib -0.076 | Tubastatin A -0.018 | [1] -0.023 | defactinib -0.038 | rucaparib -0.044 | [2] -0.009 | encorafenib 0.003 | [3] -0.011

VPS45 (UniProt Q9NRW7)
inactive: saracatinib -0.058 | sotrastaurin -0.001 | alvocidib -0.082 | Tubastatin A 0.045 | [1] -0.003 | defactinib -0.049 | rucaparib 0.095 | [2] 0.125 | encorafenib 0.062 | [3] -0.004

VPS4A (UniProt Q9UN37)
inactive: saracatinib 0.019 | sotrastaurin -0.004 | alvocidib -0.069 | Tubastatin A 0.002 | [1] -0.006 | defactinib -0.021 | rucaparib 0.008 | [2] -0.006 | encorafenib 0.049 | [3] -0.024

WDSUB1 (UniProt Q8N9V3)
inactive: saracatinib 0.041 | sotrastaurin 0.029 | alvocidib -0.037 | Tubastatin A 0.049 | [1] -0.073 | defactinib -0.061 | rucaparib -0.044 | [2] -0.036 | encorafenib -0.012 | [3] 0.037

WDR3 (UniProt Q9UNX4)
inactive: saracatinib -0.16 | sotrastaurin -0.092 | alvocidib 0.269 | Tubastatin A 0.223 | [1] -0.063 | defactinib 0.347 | rucaparib 0.302 | [2] 0.119 | encorafenib 0.172 | [3] -0.078

VCX3B (UniProt Q9H321)
inactive: saracatinib -0.022 | sotrastaurin 0.087 | alvocidib 0 | Tubastatin A -0.047 | [1] -0.057 | defactinib -0.025 | rucaparib 0.021 | [2] -0.076 | encorafenib -0.043 | [3] 0.032

WRNIP1 (UniProt Q96S55)
inactive: saracatinib -0.09 | sotrastaurin -0.197 | alvocidib -0.183 | Tubastatin A 0.107 | [1] -0.133 | defactinib -0.188 | rucaparib -0.03 | [2] -0.007 | encorafenib 0.158 | [3] -0.057

VPS13D (UniProt Q5THJ4)
inactive: saracatinib -0.169 | sotrastaurin 0.057 | alvocidib 0.151 | Tubastatin A 0.066 | [1] 0.02 | defactinib 0.036 | rucaparib 0.154 | [2] 0.111 | encorafenib 0.248 | [3] 0.044

WDR53 (UniProt Q7Z5U6)
inactive: saracatinib 0.023 | sotrastaurin -0.177 | alvocidib 0.06 | Tubastatin A 0.01 | [1] -0.055 | defactinib 0.012 | rucaparib 0.016 | [2] -0.056 | encorafenib -0.044 | [3] -0.085

VPS25 (UniProt Q9BRG1)
inactive: saracatinib -0.045 | sotrastaurin 0.002 | alvocidib -0.033 | Tubastatin A 0.008 | [1] -0.017 | defactinib 0 | rucaparib 0.014 | [2] -0.005 | encorafenib -0.007 | [3] -0.039

WIPF2 (UniProt Q8TF74)
inactive: saracatinib 0.096 | sotrastaurin 0.046 | alvocidib 0.036 | Tubastatin A 0.042 | [1] -0.015 | defactinib 0.008 | rucaparib -0.044 | [2] 0.01 | encorafenib -0.09 | [3] 0.014

WDR45 (UniProt Q9Y484)
inactive: saracatinib 0.001 | sotrastaurin 0.017 | alvocidib -0.011 | Tubastatin A -0.013 | [1] -0.073 | defactinib -0.036 | rucaparib -0.135 | [2] 0.026 | encorafenib -0.003 | [3] 0.023

WDTC1 (UniProt Q8N5D0)
inactive: saracatinib 0.085 | sotrastaurin 0.007 | alvocidib -0.021 | Tubastatin A 0.036 | [1] 0.013 | defactinib -0.038 | rucaparib 0.099 | [2] 0.023 | encorafenib -0.006 | [3] 0.025
